# Screening data

Data taken from PubChem BioAssay AID1159506, deposited by NCATS (2015).

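Genome-wide siRNA knockdown in TC32 Ewing sarcoma cells, comparing luciferase light from an NR0B1-promoter reporter with a CMV-promoter reporter 48 hours after transfection.
Each siRNA was applied at 20 nM.
A z-score of the log NR0B1-over-CMV signal, less the median of siRNAs with the same seed; more negative means a stronger specific loss of the NR0B1 reporter.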

The strongest results of the screen are mostly left out here.
Sequences are the guide (antisense) strand, without overhang.

Sequence	gene	seed-corrected z-score
UUACGGGAACUGAACCUCC	OVCH1	0.00205
AUAUGGACCACUAGAUCCU	COL4A6	0.3936
UACGUUACAGUCUUGUGAC	NLRP2	0.1372
UAUAUGGUGACUGUAGAUC	RWDD2A	0.9729
AAUGUUUCACCACAGAAUG	SCLY	-1.393
AAAGUGUCUUCAUGUAUCC	CD180	0.2338
UUCUGGAAAGUUCGGGUUG	GUCA2A	0.5248
UAUUUGAUGCGAAUGUCUC	NRG2	0.1852
UAUUUGACACUGAGUACAC	CCDC168	-1.018
AUUAUAAAUAAGGCAUUGC	LIPF	-0.811
UUCACGUCAGUUUUGUCAC	IL1R2	-0.5776
UUUCUUUUUGGAAUAAACC	ADGRA1	-0.3037
UCCGCUUGAAUAACUGCUC	KPNA1	-0.09138
UGACAUUCAAACUUAAGCU	HLA-DRB1	0.8889
AUCUGGAUGAUAGGUUGGG	KLF14	0.635
UUAUCCAACUUUCUUAACC	SOST	0.6736
AUCAUUAGAGUUAAGAUCU	WTAP	0.8874
AAAGGUUAAAGCUUCCAUC	MBD6	0.8777
UAUUUGAGCUUUAUCAUGC	PHF6	0.144
UUGAUCAUUCAUACUAUCC	SRP54	0.07084
UUACUAGCAAUUCCUUUGC	LIPC	-0.5589
AUAUCUUACACUGCUGAGG	HAS2	-1.702
ACUGCAUCAAUUUUAGGCC	MMP12	-0.1084
UACAGAUGUCCAGACGCCC	ASPH	-0.0956
UUUGAGUCCAUGCACCAGC	SYT17	0.9807
UUAGUCAUGUGCAAGACCA	FZD9	0.01709
CAUCUUCUCGGGAGAGCUC	FOXB1	-0.651
UUCUUGCCCUUUAAUGUGC	GALM	-0.1631
UCGUCUGACACGUCUCUCC	MOB2	0.5663
UAAGAUGAAAGCUCAUGGU	DVL2	1.029
UUACGUAAUGCUGAGCACU	EIF5A	0.02886
AACAUGUAGACAUAGCGGU	FADS6	0.0643
UUAUAGAGAACCCAUAACC	C3orf17	2.277
UCUUUUUAUCGGUCUGCCU	PTPN18	-0.1979
UAUAUAUGUGGUGUCCUGG	CTSZ	0.3332
UUACGUUUUUCCAUAAAUG	TRAF3IP2	0.8642
UUCGAUCCCGAUUUUGUUC	TK2	0.1958
UGUCUUUAAUUCUUGAUUC	PIPOX	-0.1964
AAAUUUGUAAGCUCAGGUA	ESRRB	-0.6998
UUGGUUAUUUCGAAUAUGC	NIM1K	-0.2912
AUGGUGUUGGAAUUUCGCG	ASPDH	-0.2649
UUCAAAGUAGCAGCAGUCU	MRPS6	0.09483
UUUGAUCCAGAGGACAUCG	SRXN1	-0.6013
CUUGAAUUCACCGAGCUCC	LARP6	0.09335
UUCUGAUCGCUCUUUUUGC	CNDP1	-0.1131
UCUAGAUUAAGGGUCAUGC	LOC727978	-1.33
UCCGCUUACAGCUAGUACC	SIX5	0.1238
UCCGUAUUGAUGACCUUCU	SLC34A1	0.4662
UAAUUGGGCAGAAAUAAGC	KNDC1	0.04405
UAAGCUUCUCUGUAACUCC	TDRD3	0.266
CAAGCUUUGCUCUUUUCUC	SVIP	0.4067
UCUUUAUCUCGGUUAUUCC	BNC2	0.2763
UAGAGUCAGCCCAGAAACC	LOC646179	-0.7083
UCUCUAUCAUAAAUUGUUC	NHEJ1	0.09738
UAAUGCGCUCGAAAGGUCG	ARFGEF3	-1.14
UUACUUCUAAGCAAGUGUC	LRP12	-0.05536
UUCAUGGGAAUGGUCGACG	CELF4	-0.7452

Once more, the final 7:

CAAGCUUUGCUCUUUUCUC against SVIP read seed-corrected z-score 0.4067.
UCUUUAUCUCGGUUAUUCC against BNC2 read seed-corrected z-score 0.2763.
UAGAGUCAGCCCAGAAACC against LOC646179 read seed-corrected z-score -0.7083.
UCUCUAUCAUAAAUUGUUC against NHEJ1 read seed-corrected z-score 0.09738.
UAAUGCGCUCGAAAGGUCG against ARFGEF3 read seed-corrected z-score -1.14.
UUACUUCUAAGCAAGUGUC against LRP12 read seed-corrected z-score -0.05536.
UUCAUGGGAAUGGUCGACG against CELF4 read seed-corrected z-score -0.7452.